Assay results published in US20120321632A1.
No constants are given. Whether binding was seen depends on the method and setting. Some binding calls cover weakened binding; strength is not graded here. Each block holds one binder with its values, some of them ahead of it.

How the values were obtained:
[1] = target: T1, human prolactin receptor (PRLR) on cells (T47D; HEK293 or Ba/F3 stably transfected with human PRLR) (human) (UniProt P16471); assay: statement in Example 7 (T47D cells)
T1 sequence (looked up): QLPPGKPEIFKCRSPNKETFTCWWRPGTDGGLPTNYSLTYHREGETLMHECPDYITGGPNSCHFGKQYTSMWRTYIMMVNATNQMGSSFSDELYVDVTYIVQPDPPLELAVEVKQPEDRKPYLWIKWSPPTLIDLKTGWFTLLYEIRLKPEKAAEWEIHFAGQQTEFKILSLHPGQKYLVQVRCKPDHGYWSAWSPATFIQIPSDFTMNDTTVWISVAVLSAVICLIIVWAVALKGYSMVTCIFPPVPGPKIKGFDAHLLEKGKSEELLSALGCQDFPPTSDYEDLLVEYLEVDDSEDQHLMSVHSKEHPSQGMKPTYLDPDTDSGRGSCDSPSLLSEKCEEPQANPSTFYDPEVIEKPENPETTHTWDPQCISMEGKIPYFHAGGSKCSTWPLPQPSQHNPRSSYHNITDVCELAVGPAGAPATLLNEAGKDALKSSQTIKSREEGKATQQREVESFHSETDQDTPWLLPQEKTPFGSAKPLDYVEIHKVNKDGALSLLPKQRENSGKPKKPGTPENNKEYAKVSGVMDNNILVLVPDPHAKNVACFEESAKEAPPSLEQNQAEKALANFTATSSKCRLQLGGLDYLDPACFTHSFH

[2] = target: T2, rat prolactin receptor (PRLR) on rat lymphoma cell line Nb2 (rat) (UniProt P05710); assay: statement in Example 6 (Nb2-11 cells)
T2 sequence (looked up): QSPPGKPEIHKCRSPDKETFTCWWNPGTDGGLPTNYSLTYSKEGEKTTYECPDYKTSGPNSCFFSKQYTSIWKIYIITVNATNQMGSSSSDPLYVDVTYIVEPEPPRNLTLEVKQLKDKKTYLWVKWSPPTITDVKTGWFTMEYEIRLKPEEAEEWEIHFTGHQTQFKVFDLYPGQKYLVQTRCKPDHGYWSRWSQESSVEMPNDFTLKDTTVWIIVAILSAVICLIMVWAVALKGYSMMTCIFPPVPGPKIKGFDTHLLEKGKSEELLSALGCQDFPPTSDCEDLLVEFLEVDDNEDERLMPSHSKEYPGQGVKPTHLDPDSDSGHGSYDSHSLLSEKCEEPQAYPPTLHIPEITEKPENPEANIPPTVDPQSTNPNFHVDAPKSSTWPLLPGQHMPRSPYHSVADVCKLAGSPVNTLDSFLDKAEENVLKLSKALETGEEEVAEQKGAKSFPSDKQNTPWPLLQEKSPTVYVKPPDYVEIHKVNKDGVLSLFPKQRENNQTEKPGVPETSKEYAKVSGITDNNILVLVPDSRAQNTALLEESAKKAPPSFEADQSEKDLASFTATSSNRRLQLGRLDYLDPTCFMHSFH

[3] = target: T1, human prolactin receptor (PRLR) on cells (T47D; HEK293 or Ba/F3 stably transfected with human PRLR) (human); assay: flow cytometry (FACS) on HEK293 cells stably expressing human PRLR, one fixed concentration of 0.37 µg/ml IgG, PE-conjugated goat anti-human IgG, compared with parental HEK293 without PRLR
[4] = target: T1, human prolactin receptor (PRLR) on cells (T47D; HEK293 or Ba/F3 stably transfected with human PRLR) (human); assay: flow cytometry on HEK293 cells stably expressing human PRLR, fixed concentration

- binding [1]: binds
- binding [2]: binds
B1: XHA06.642 (Novartis, WO2008/22295) (antibody, V domains shown)
VH: EVQLVESGGDLVKPGGSLKLSCAVSGFTFSSYGMSWVRQTPDKRLEWVATVSSGGTYTYYPDSVKGRFTISRDNAKNTLYLQMSSLKSEDSAMYYCARHRGNYYATYYYAMDYWGQGTSVTVSS
VL: DIVLTQSPASLAVSLGQGATISCRASKSVSTSGYTYMHWYQQKPGQPPKLLIYLASNLESGVPARFSGSGSGTDFTLNIHPVEEEDAATYYCQHSGELPPSFGGGTKLEIKR

- binding [3]: binds
- binding [4]: binds
B2: HE06.642 (Novartis, WO2008/22295; Human Engineered antibody) (antibody, V domains shown)
VH: EVQLVESGGGLVQPGGSLRLSCAVSGFTFSSYGMSWVRQAPGKGLEWVATVSSGGTYTYYPDSVKGRFTISRDNSKNTLYLQMNSLRAEDTAVYYCARHRGNYYATYYYAMDYWGQGTLVTVSS
VL: DIVLTQSPDSLAVSLGERATINCKASKSVSTSGYTYMHWYQQKPGQPPKLLIYLASNRESGVPDRFSGSGSGTDFTLTISPVQAEDVATYYCQHSGELPPSFGQGTKLEIKR
